Results are given in words; binding and its absence hold for the method and conditions named. Some results given as binding are weak or reduced against the parent protein; the word gives no strength.
Assays:
[1] = biological target: Escherichia coli acyl carrier protein coupled to cyanogen bromide-activated Sepharose 4B (Escherichia coli) (UniProt P0A6A8); experiment: affinity chromatography on immobilized E. coli ACP, fractions assayed for activity
[2] = biological target: Escherichia coli acyl carrier protein coupled to cyanogen bromide-activated Sepharose 4B (Escherichia coli) (UniProt P0A6A8); experiment: affinity chromatography on E. coli ACP coupled to Sepharose 4B; eluted with a 100-500 mM phosphate gradient

The chains behind the UniProt entries cited, without tags or fusion partners. Residues count along the entry.
UniProt P0A6A8, residues 2-78: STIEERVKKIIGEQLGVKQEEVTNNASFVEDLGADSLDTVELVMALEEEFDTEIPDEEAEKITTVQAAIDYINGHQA

B1: Bay C12-preferring acyl-ACP thioesterase purified from immature Umbellularia californica cotyledons (enzyme)
chain: LEWKPKPKLPQLLDDHFGLHGLVFRRTFAIRSYEVGPDRSTSILAVMNHMQEATLNHAKSVGILGDGFGTTLEMSKRDLMWVVRRTHVAVERYPTWGDTVEVECWIGASGNNGMRRDFLVRDCKTGEILTRCTSLSVLMNTRTRRLSTIPDEVRGEIGPAFIDNVAVKDDEIKKLQKLNDSTADYIQGGLTPRWNDLDVNQHVNNLKYVAWVFETVPDSIFESHHISSFTLEYRRECTRDSVLRSLTTVSGGSSEAGLVCDHLLQLEGGSEVLRARTEWRPKLTDSFRGISVIPAEPRV
binding [1]: binds | binding [2]: binds

From patent EP1298214B1, “Plant thioesterases” (Calgene LLC, priority 1990, dated 1991)
